The values below are quoted from earlier work in patent US20220225651A1, “STEVIOL GLYCOSIDE AND FERULIC ACID FORMULATIONS FOR FOOD AND BEVERAGES” (Sweegen, Inc., priority 2021, published 2022).

Structures are written as SMILES.

In the case of `C=C1C[C@@]23CC[C@H]4[C@@](C)(CCC[C@@]4(C)C(=O)O[C@@H]4O[C@H](CO)[C@@H](O)[C@H](O)[C@H]4O)[C@@H]2CC[C@]1(O[C@@H]1O[C@H](CO)[C@@H](O)[C@H](O[C@@H]2O[C@H](CO)[C@@H](O)[C@H](O)[C@H]2O)[C@H]1O[C@@H]1O[C@H](CO)[C@@H](O)[C@H](O)[C@H]1O)C3` [Reb A, rebaudioside A], the “concentration above which bitterness is perceptible” value (perceptible bitterness) is listed as “above 200 ppm”. With `C=C1C[C@@]23CC[C@H]4[C@@](C)(CCC[C@@]4(C)C(=O)O[C@@H]4O[C@H](CO)[C@@H](O)[C@H](O)[C@H]4O)[C@@H]2CC[C@]1(O[C@@H]1O[C@H](CO)[C@@H](O)[C@H](O)[C@H]1O[C@@H]1O[C@H](CO)[C@@H](O)[C@H](O)[C@H]1O)C3` [stevioside], under “taste quality”, the after-taste entry was “bitter after-taste”.
